Measurements taken from PMC4729931.
These are yes or no findings as the source states them, for the method shown. Binding seen in cells or lysates may run through a third protein. Some entries that bind do so weakly or less than the wild type.

Assays:
[1] = biological target: T1, VANGL2 (human (endogenous in SUM149, SKBR7, PDX)) (UniProt Q9ULK5); experiment: co-IP; co-immunoprecipitation from SUM149 cells expressing GFP-p62^DN (Supplementary Fig. 5)
T1 sequence: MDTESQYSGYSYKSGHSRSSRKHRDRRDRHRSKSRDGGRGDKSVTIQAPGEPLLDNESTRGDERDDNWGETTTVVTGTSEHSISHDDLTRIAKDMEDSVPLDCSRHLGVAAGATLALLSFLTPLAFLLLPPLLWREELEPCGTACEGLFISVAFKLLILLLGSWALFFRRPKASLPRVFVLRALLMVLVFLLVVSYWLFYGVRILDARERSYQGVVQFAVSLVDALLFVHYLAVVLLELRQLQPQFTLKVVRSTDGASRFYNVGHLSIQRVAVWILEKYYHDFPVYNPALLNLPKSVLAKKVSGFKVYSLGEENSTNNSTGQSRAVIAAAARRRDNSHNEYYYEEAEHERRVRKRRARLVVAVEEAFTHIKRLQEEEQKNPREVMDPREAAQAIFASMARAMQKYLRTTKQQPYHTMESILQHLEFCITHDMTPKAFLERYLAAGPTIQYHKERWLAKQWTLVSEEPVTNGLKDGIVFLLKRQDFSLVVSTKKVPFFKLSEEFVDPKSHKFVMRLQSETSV

[2] = biological target: T1, VANGL2 (human (endogenous in SUM149, SKBR7, PDX)); experiment: co-IP; immunoprecipitation of endogenous VANGL2 (2G4 mAb, protein G-agarose) and western blot; SUM149, SKBR7, IMCD3 cells and PDX extracts; cells also treated with serum, Wnt5a, PBS or EGTA

binding [1]: binds
binding [2]: binds
Substance: p62/sequestosome-1 (from UniProt Q13501 1-440)
